Measurements reported in publication PMC7948404.
Results are given in words; binding and its absence hold for the method and conditions named. In cells and extracts the contact can be indirect. Some binding calls cover weakened binding; strength is not graded here.

The chains behind the UniProt entries cited, without tags or fusion partners.
UniProt Q9NS75: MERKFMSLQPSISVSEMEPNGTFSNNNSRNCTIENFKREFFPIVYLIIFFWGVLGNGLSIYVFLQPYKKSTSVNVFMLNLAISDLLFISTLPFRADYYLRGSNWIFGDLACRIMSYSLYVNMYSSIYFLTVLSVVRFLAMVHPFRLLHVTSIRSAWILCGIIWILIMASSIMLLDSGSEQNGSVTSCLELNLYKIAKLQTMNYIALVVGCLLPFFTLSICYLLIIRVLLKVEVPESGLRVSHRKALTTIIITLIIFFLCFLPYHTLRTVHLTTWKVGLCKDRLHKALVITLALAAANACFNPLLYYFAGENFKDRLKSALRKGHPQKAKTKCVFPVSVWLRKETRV
UniProt P49407: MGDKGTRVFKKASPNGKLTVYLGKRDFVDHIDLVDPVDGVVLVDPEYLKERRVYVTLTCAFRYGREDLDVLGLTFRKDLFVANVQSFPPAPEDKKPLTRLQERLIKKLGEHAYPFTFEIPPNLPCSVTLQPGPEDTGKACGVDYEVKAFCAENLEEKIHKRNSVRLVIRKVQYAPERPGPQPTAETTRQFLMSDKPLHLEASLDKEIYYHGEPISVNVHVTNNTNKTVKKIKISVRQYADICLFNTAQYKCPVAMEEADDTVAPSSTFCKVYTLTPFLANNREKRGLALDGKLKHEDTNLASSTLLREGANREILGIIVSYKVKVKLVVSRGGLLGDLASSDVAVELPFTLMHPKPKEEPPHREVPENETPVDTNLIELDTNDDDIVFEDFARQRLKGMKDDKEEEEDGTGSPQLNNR

Experiments:
CysLTR2-GFP10 WT (human) [1] = molecular target: CysLTR2-GFP10 WT (human) (UniProt Q9NS75); test: FRET or BRET; BRET^2 agonist dose-response in live HEK293T cells: 5 ng β-arrestin-RLuc3 (donor) and 80 ng receptor-GFP10 (acceptor) DNA per well, 24 h after transfection; LTD4 10 pM to 1 μM, 10 min at RT; BRET buffer (DMEM FluoroBrite, 15 mM HEPES, 0.1% BSA, 4 mM glutamine); net BRET^2 = ratio minus β-arrestin-RLuc3-only ratio
CysLTR2-GFP10 WT (human) [2] = molecular target: CysLTR2-GFP10 WT (human) (UniProt Q9NS75); test: FRET or BRET; BRET^2 time course in live HEK293T cells: 5 ng β-arrestin-RLuc3 and 80 ng receptor-GFP10 WT DNA per well; 0, 30 or 1000 nM LTD4, a reading every 60 s for about 24 min

Substance	binding (CysLTR2-GFP10 WT (human) [1])	binding (CysLTR2-GFP10 WT (human) [2])
β-arrestin1–RLuc3 (from UniProt P49407 1-418)	binds	binds
β-arrestin2-RLuc3 (from UniProt P32121 1-409)		binds
